From PMC6587271
These are yes or no findings as the source states them, for the method shown. Binding seen in cells or lysates may run through a third protein. Some results given as binding are weak or reduced against the parent protein; the word gives no strength. For part of these data: Tags and fused reporters may be left off the sequences shown.

The chains behind the UniProt entries cited, without tags or fusion partners. Residues count along the entry.
UniProt O95831, residues 102-613: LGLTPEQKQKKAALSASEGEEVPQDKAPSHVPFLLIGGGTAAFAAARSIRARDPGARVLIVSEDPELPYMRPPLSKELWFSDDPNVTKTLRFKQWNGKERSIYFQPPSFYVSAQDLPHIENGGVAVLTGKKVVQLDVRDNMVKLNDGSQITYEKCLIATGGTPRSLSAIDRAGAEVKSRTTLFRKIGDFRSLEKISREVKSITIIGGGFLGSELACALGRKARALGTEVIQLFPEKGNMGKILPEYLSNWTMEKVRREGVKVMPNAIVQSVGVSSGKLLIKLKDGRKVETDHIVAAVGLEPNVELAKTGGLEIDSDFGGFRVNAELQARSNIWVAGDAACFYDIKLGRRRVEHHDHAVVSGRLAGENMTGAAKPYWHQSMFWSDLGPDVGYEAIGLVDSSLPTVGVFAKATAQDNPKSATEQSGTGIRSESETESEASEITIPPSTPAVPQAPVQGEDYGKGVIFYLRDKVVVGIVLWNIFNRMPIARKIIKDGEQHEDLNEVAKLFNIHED

What was measured:
[1] = target: T1, HA-S-tagged CHTM1 (Coiled-coil Helix Tumor and Metabolism 1), exogenous, in 293T cells (human) (UniProt Q9BSY4); assay: pull-down; S-tag pull-down of exogenous HA-tagged CHTM1 from 293T cells; endogenous AIF1 detected by Western blot
T1 sequence: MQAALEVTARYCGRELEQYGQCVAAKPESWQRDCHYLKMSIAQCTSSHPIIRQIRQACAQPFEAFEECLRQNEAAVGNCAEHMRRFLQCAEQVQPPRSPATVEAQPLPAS

[2] = target: T2, CHTM1 (Coiled-coil Helix Tumor and Metabolism 1), endogenous in A549 cells (human (endogenous in A549)) (UniProt Q9BSY4); assay: co-IP; immunoprecipitation from A549 cells, endogenous CHTM1 and endogenous AIF1, Western blot
T2 sequence: T1 sequence

[3] = target: T3, HA-S-tagged CHTM1, transiently transfected in A549 cells (human) (UniProt Q9BSY4); assay: pull-down; S-tag pull-down from A549 cells transiently transfected with HA-S-tagged CHTM1 or vector-only, cultured in the presence or absence of glucose/glutamine for 4 h; Western blot
T3 sequence: T1 sequence

Row | binding [1] | binding [2] | binding [3] | Substance
1 | binds | – | – | Apoptosis Inducing Factor 1 (AIF1), endogenous in 293T cells (from UniProt O95831 102-613)
2 | – | binds | binds | Apoptosis Inducing Factor 1 (AIF1), endogenous in A549 cells (from UniProt O95831 102-613)
